PMC5460035 (Nature Communications, 2017)
No constants are given. Whether binding was seen depends on the method and setting. Binding seen in cells or lysates may run through a third protein. Some results given as binding are weak or reduced against the parent protein; the word gives no strength.

Sequences of proteins named here, by UniProt entry; tags and fusion partners are left off.
UniProt O94763: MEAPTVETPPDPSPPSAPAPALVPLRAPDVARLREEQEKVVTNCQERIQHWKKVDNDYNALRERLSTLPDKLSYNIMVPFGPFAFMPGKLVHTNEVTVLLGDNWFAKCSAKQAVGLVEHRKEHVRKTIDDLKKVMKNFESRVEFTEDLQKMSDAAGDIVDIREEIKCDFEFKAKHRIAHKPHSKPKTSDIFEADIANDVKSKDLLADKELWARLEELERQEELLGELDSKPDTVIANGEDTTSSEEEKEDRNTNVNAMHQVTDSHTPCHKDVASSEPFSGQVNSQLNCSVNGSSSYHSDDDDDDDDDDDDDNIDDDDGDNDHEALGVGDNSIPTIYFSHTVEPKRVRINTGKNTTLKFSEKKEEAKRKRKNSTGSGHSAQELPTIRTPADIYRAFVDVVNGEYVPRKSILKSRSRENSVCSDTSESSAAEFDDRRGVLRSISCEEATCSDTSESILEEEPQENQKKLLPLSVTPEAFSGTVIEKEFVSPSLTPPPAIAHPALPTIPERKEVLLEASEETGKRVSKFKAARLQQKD
UniProt Q9H6T3: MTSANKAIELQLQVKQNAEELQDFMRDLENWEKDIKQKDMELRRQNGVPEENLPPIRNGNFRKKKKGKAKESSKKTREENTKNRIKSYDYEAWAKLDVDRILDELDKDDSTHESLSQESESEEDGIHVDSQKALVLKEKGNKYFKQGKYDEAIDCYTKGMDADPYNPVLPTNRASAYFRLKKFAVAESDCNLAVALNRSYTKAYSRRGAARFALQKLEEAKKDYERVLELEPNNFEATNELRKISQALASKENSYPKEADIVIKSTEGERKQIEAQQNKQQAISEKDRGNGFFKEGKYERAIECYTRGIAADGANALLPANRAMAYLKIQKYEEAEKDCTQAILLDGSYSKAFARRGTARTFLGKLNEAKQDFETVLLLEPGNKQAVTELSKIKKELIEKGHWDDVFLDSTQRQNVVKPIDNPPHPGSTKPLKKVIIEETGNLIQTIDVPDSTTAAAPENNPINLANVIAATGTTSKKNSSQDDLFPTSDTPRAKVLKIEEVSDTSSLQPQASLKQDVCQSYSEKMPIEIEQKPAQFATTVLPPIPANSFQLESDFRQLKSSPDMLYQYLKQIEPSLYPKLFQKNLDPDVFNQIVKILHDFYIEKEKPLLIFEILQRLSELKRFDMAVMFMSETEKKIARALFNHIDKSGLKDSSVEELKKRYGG

Assays:
FLAG-URI1 = FLAG-URI1 (UniProt O94763); test: co-IP; FLAG-tagged bait transfected in HeLa S3 cells; anti-FLAG M2 magnetic beads, CoIP buffer (250 mM NaCl, 0.5% NP-40), 2 h at 4 °C; western blot of endogenous proteins
FLAG-RPAP3 (human) = FLAG-RPAP3 (human) (UniProt Q9H6T3); test: as above

binding (FLAG-URI1): binds
binding (FLAG-RPAP3 (human)): binds
B1: TSC1 (protein, UniProt Q92574 1-1164)
chain: MAQQANVGELLAMLDSPMLGVRDDVTAVFKENLNSDRGPMLVNTLVDYYLETSSQPALHILTTLQEPHDKHLLDRINEYVGKAATRLSILSLLGHVIRLQPSWKHKLSQAPLLPSLLKCLKMDTDVVVLTTGVLVLITMLPMIPQSGKQHLLDFFDIFGRLSSWCLKKPGHVAEVYLVHLHASVYALFHRLYGMYPCNFVSFLRSHYSMKENLETFEEVVKPMMEHVRIHPELVTGSKDHELDPRRWKRLETHDVVIECAKISLDPTEASYEDGYSVSHQISARFPHRSADVTTSPYADTQNSYGCATSTPYSTSRLMLLNMPGQLPQTLSSPSTRLITEPPQATLWSPSMVCGMTTPPTSPGNVPPDLSHPYSKVFGTTAGGKGTPLGTPATSPPPAPLCHSDDYVHISLPQATVTPPRKEERMDSARPCLHRQHHLLNDRGSEEPPGSKGSVTLSDLPGFLGDLASEEDSIEKDKEEAAISRELSEITTAEAEPVVPRGGFDSPFYRDSLPGSQRKTHSAASSSQGASVNPEPLHSSLDKLGPDTPKQAFTPIDLPCGSADESPAGDRECQTSLETSIFTPSPCKIPPPTRVGFGSGQPPPYDHLFEVALPKTAHHFVIRKTEELLKKAKGNTEEDGVPSTSPMEVLDRLIQQGADAHSKELNKLPLPSKSVDWTHFGGSPPSDEIRTLRDQLLLLHNQLLYERFKRQQHALRNRRLLRKVIKAAALEEHNAAMKDQLKLQEKDIQMWKVSLQKEQARYNQLQEQRDTMVTKLHSQIRQLQHDREEFYNQSQELQTKLEDCRNMIAELRIELKKANNKVCHTELLLSQVSQKLSNSESVQQQMEFLNRQLLVLGEVNELYLEQLQNKHSDTTKEVEMMKAAYRKELEKNRSHVLQQTQRLDTSQKRILELESHLAKKDHLLLEQKKYLEDVKLQARGQLQAAESRYEAQKRITQVFELEILDLYGRLEKDGLLKKLEEEKAEAAEAAEERLDCCNDGCSDSMVGHNEEASGHNGETKTPRPSSARGSSGSRGGGGSSSSSSELSTPEKPPHQRAGPFSSRWETTMGEASASIPTTVGSLPSSKSFLGMKARELFRNKSESQCDEDGMTSSLSESLKTELGKDLGVEAKIPLNLDGPHPSPPTPDSVGQLHIMDYNETHHEHS
